Measured values taken from article PMC9574752.
No constants are given. Whether binding was seen depends on the method and setting. In cells and extracts the contact can be indirect. For some assays here: Binding can be weak; no strength is given.

By UniProt entry, the sequences of proteins in these tests, tags left out. Where a name states a change or a piece, a line headed by the entry shows the natural chain unless it says otherwise.
UniProt Q8N6M0: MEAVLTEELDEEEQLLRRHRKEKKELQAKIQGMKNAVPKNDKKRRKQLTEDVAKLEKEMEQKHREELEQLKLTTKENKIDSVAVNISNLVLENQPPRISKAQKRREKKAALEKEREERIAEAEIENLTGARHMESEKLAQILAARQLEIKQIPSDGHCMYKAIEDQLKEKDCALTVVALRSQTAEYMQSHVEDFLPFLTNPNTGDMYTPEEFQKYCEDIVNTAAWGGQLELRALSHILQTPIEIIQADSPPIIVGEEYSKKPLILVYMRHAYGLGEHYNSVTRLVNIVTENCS

Assays:
GST-OTUD6B = GST-OTUD6B (UniProt Q8N6M0); assay: pull-down; bead-bound purified GST-OTUD6B or GST alone incubated with clarified HEK293T lysate for 1 h at 4°C, four washes with lysis buffer; immunoblot; only the target purified
[1] = target: FLAG-OTUD6B isoform 2 (IF2); assay: co-IP; FLAG-tagged proteins expressed in HEK293T; whole cell extract (150 mM NaCl, 50 mM Tris-HCl pH 7.5, 5 mM MgCl2, 1 mM EDTA, 0.1% NP-40, 5% glycerol) on FLAG-M2 agarose at 4°C for 1.5-2 h; immunoblot

B1: LIN28B, endogenous in HEK293T cells (protein, UniProt Q6ZN17 1-250)
chain: MAEGGASKGGGEEPGKLPEPAEEESQVLRGTGHCKWFNVRMGFGFISMINREGSPLDIPVDVFVHQSKLFMEGFRSLKEGEPVEFTFKKSSKGLESIRVTGPGGSPCLGSERRPKGKTLQKRKPKGDRCYNCGGLDHHAKECSLPPQPKKCHYCQSIMHMVANCPHKNVAQPPASSQGRQEAESQPCTSTLPREVGGGHGCTSPPFPQEARAEISERSGRSPQEASSTKSSIAPEEQSKKGPSVQKRKKT
Question: Which binding (GST-OTUD6B) does the source give for B1 here?
Answer: binds

Question: What about the binding [1] of the same binder?
Answer: no binding
